These are yes or no findings as the source states them, for the method shown. Binding seen in cells or lysates may run through a third protein. Some binding calls cover weakened binding; strength is not graded here.
Biological target: TFII‐I (human (endogenous in SK-Hep-1)) (UniProt P78347)
Assay: co-IP; lysate of SK-Hep-1 cells with stable overexpression of circARHGAP35 protein; IP with TFII-I or control IgG antibody; immunoblot with the indicated antibodies

Chains of the proteins cited; added tags and fusions are not shown.
UniProt P78347: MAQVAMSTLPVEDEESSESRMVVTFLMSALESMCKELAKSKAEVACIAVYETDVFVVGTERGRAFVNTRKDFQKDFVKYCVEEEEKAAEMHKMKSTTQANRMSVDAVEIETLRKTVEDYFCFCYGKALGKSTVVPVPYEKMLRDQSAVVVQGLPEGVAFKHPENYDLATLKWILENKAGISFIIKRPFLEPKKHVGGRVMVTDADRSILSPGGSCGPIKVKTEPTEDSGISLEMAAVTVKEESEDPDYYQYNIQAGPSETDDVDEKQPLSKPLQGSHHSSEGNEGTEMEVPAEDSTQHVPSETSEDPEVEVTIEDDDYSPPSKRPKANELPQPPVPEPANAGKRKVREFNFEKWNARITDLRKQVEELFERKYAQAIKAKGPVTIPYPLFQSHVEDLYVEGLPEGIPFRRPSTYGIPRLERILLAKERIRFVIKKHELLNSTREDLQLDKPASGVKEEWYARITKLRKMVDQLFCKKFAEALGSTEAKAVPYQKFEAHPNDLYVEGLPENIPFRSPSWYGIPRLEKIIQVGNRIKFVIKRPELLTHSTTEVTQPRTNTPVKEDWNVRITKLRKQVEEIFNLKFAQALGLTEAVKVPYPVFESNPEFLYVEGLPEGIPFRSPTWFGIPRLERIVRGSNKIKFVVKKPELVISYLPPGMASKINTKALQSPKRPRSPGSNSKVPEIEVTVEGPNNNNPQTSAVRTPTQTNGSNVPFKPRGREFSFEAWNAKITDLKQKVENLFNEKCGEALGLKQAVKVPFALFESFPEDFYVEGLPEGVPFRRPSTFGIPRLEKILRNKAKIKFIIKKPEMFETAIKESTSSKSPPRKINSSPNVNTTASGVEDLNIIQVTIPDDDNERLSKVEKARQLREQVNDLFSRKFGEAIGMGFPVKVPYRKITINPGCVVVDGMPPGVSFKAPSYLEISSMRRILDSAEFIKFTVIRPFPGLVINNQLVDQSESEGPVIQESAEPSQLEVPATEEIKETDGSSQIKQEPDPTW

- binding: binds weakly
B1: ARHGAP35 protein (protein, UniProt Q9NRY4 1-1499)
chain: MMMARKQDVRIPTYNISVVGLSGTEKEKGQCGIGKSCLCNRFVRPSADEFHLDHTSVLSTSDFGGRVVNNDHFLYWGEVSRSLEDCVECKMHIVEQTEFIDDQTFQPHRSTALQPYIKRAAATKLASAEKLMYFCTDQLGLEQDFEQKQMPDGKLLVDGFLLGIDVSRGMNRNFDDQLKFVSNLYNQLAKTKKPIVVVLTKCDEGVERYIRDAHTFALSKKNLQVVETSARSNVNVDLAFSTLVQLIDKSRGKTKIIPYFEALKQQSQQIATAKDKYEWLVSRIVKNHNENWLSVSRKMQASPEYQDYVYLEGTQKAKKLFLQHIHRLKHEHIERRRKLYLAALPLAFEALIPNLDEIDHLSCIKAKKLLETKPEFLKWFVVLEETPWDATSHIDNMENERIPFDLMDTVPAEQLYEAHLEKLRNERKRVEMRRAFKENLETSPFITPGKPWEEARSFIMNEDFYQWLEESVYMDIYGKHQKQIIDKAKEEFQELLLEYSELFYELELDAKPSKEKMGVIQDVLGEEQRFKALQKLQAERDALILKHIHFVYHPTKETCPSCPACVDAKIEHLISSRFIRPSDRNQKNSLSDPNIDRINLVILGKDGLARELANEIRALCTNDDKYVIDGKMYELSLRPIEGNVRLPVNSFQTPTFQPHGCLCLYNSKESLSYVVESIEKSRESTLGRRDNHLVHLPLTLILVNKRGDTSGETLHSLIQQGQQIASKLQCVFLDPASAGIGYGRNINEKQISQVLKGLLDSKRNLNLVSSTASIKDLADVDLRIVMCLMCGDPFSADDILFPVLQSQTCKSSHCGSNNSVLLELPIGLHKKRIELSVLSYHSSFSIRKSRLVHGYIVFYSAKRKASLAMLRAFLCEVQDIIPIQLVALTDGAVDVLDNDLSREQLTEGEEIAQEIDGRFTSIPCSQPQHKLEIFHPFFKDVVEKKNIIEATHMYDNAAEACSTTEEVFNSPRAGSPLCNSNLQDSEEDIEPSYSLFREDTSLPSLSKDHSKLSMELEGNDGLSFIMSNFESKLNNKVPPPVKPKPPVHFEITKGDLSYLDQGHRDGQRKSVSSSPWLPQDGFDPSDYAEPMDAVVKPRNEEENIYSVPHDSTQGKIITIRNINKAQSNGSGNGSDSEMDTSSLERGRKVSIVSKPVLYRTRCTRLGRFASYRTSFSVGSDDELGPIRKKEEDQASQGYKGDNAVIPYETDEDPRRRNILRSLRRNTKKPKPKPRPSITKATWESNYFGVPLTTVVTPEKPIPIFIERCIEYIEATGLSTEGIYRVSGNKSEMESLQRQFDQDHNLDLAEKDFTVNTVAGAMKSFFSELPDPLVPYNMQIDLVEAHKINDREQKLHALKEVLKKFPKENHEVFKYVISHLNKVSHNNKVNLMTSENLSICFWPTLMRPDFSTMDALTATRTYQTIIELFIQQCPFFFYNRPITEPPGARPSSPSAVASTVPFLTSTPVTSQPSPPQSPPPTPQSPMQPLLPSQLQAEHTL

Source: paper PMC8261482
